{"source": "PubChem BioAssay AID504467", "about": "(National Center for Advancing Translational Sciences (NCATS), 2011)", "note": "In all, about 330,000 compounds went through this assay and about 7,700 (2.3%) were called active. The shares of active, inactive and inconclusive entries below differ from those in the screen. Calls come from the whole dose curve; as a rule, active = well fitted inhibition curve with a large enough effect; inconclusive = small, poorly fitted or top-dose-only effect, or effect the other way; inactive = flat fitted curve, though single readings scatter. Potencies beside an inconclusive call are fits to weak or partial responses and may not hold up. % is set by controls: 0 for no effect and ±100 for the full control effect; potency is the fitted concentration of half-maximal effect.", "data": [{"assay": "qHTS screen for small molecules that inhibit ELG1-dependent DNA repair in human embryonic kidney (HEK293T) cells expressing luciferase-tagged ELG1; note: nearly all actives have a fitted effect of over 55% in size", "conditions": "HEK293T ELG1-luciferase reporter, luminescence, 16 h, DNA damage induced by 5-fluorouridine; activity change, negative = inhibition: at 46.1 µM (top of the series)", "in_short": "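Quantitative HTS, concentration-response format. 2,000 cells/well co-treated with 5-fluorouridine and compound, 16 hr in 5% CO2 at 37 °C; ONE-Glo luminescence read after 30 min.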", "values": [{"smiles": "O=C(Nc1nccs1)C1Cc2ccccc2CN1S(=O)(=O)c1ccc(F)cc1", "note": "(stereo unspecified)", "Potency": "inconclusive: 4.61 µM [activator, partial curve, poor fit]"}, {"smiles": "O=C(c1cc(-c2ccc(Cl)cc2)n(-c2cc(Cl)ccc2Cl)n1)N1CCOCC1", "Potency": "inconclusive: 29.1 µM [inhibitor, single point]"}, {"smiles": "COc1ccc(CC(=O)NC2CCN(Cc3nnnn3C(C)(C)C)CC2)cc1OC", "activity change, negative = inhibition": "inactive: 5.99%"}, {"smiles": "CC(=O)Oc1ccc(C(=O)NCc2ccco2)cc1", "activity change, negative = inhibition": "inactive: 20.6%"}, {"smiles": "COc1cc(NC(=S)NCc2cccnc2)cc(OC)c1OC", "activity change, negative = inhibition": "inactive: 7.26%"}, {"smiles": "Cc1occc1C(=O)Nc1ccc2c(c1)CCC2", "Potency": "inconclusive: 4.11 µM [activator, full curve]"}, {"smiles": "O=C(O)C/C(=C\\c1ccc(N2CCOCC2)c([N+](=O)[O-])c1)c1nc2ccccc2s1", "Potency": "inconclusive: 16.4 µM [activator, partial curve]"}, {"smiles": "Cc1cccc(N2CCN(C(=O)c3cc(COc4ccc(F)c(F)c4)on3)CC2)n1", "Potency": "inconclusive: 18.3 µM [activator, partial curve, poor fit]"}, {"smiles": "Cc1nc([N+](=O)[O-])c(C(=O)OCc2ccccc2F)n1C", "activity change, negative = inhibition": "inactive: 3.42%"}, {"smiles": "CC1Cc2ccccc2N1C(=O)c1cccnc1", "note": "(stereo unspecified)", "activity change, negative = inhibition": "inactive: -9.62%"}, {"smiles": "Cc1cccc(-n2ccc(=O)c(C(=O)Nc3ccc(S(=O)(=O)Nc4nccc(C)n4)cc3)n2)c1", "Potency": "inconclusive: 23.1 µM [activator, partial curve, poor fit]"}, {"smiles": "CC[N+](CC)(CCO)CCCN1C(=O)C2CC=C(Cl)CC2C1=O", "note": "(stereo unspecified)", "activity change, negative = inhibition": "inactive: 3.66%"}, {"smiles": "CCCn1c(N)c(C(=O)CSc2nc(C3CC3)n(-c3ccccc3)n2)c(=O)[nH]c1=O", "activity change, negative = inhibition": "inactive: 0%"}, {"smiles": "O=C(CSc1ccccc1)Nc1ccc(Cl)c(S(=O)(=O)N2CCOCC2)c1", "Potency": "active: 13 µM"}, {"smiles": "Cc1cccc(C(=O)OCC(=O)N2CCCCCC2)c1C", "Potency": "inconclusive: 16.4 µM [activator, partial curve]"}, {"smiles": "CC1CCCCN1S(=O)(=O)c1ccc(C(=O)Nc2ccccc2-c2nc3ccccc3[nH]2)cc1", "note": "(stereo unspecified)", "Potency": "inconclusive: 10.3 µM [inhibitor, partial curve]"}, {"smiles": "CCNCc1ccc(OCc2cccs2)c(OCC)c1", "Potency": "inconclusive: 11.6 µM [activator, partial curve]"}, {"smiles": "O=C(NCc1nnc(SCC(=O)N2CCN(c3ccccc3)CC2)o1)c1c(F)cccc1Cl", "activity change, negative = inhibition": "inactive: -8.29%"}, {"smiles": "CCCc1nn2c(=O)cc(CSCC(=O)Nc3cccc(OC)c3)nc2s1", "Potency": "inconclusive: 18.3 µM [activator, partial curve, poor fit]"}, {"smiles": "COc1cc(NC(=O)c2ccccc2)c(OC)cc1NC(=O)Cc1cccs1", "Potency": "inconclusive: 25.9 µM [inhibitor, partial curve, poor fit]"}, {"smiles": "O=C(NCc1ccc(Cl)cc1)C1CCN(S(=O)(=O)c2ccc(N3CCCC3=O)cc2)CC1", "activity change, negative = inhibition": "inactive: -6.91%"}, {"smiles": "CN(C)CCN(C(=O)CN1C(=O)c2ccccc2C1=O)c1nc2cc3c(cc2s1)OCCO3", "Potency": "inconclusive: 20.6 µM [activator, partial curve, poor fit]"}, {"smiles": "N#CCCn1cc(C(=O)Nc2ccccc2Br)c(-c2cc3ccccc3o2)n1", "Potency": "inconclusive: 29.1 µM [inhibitor, single point]"}, {"smiles": "CC(NC(=O)C1CCC1)c1ccccc1", "note": "(stereo unspecified)", "activity change, negative = inhibition": "inactive: 5.34%"}, {"smiles": "C/C(N)=C(/C#N)C(=O)COC(=O)c1cc(-c2ccc(Br)cc2)nc2ccccc12", "Potency": "inconclusive: 8.2 µM [inhibitor, partial curve]"}, {"smiles": "O=C(Nc1ccc2c(c1)CCCN2C(=O)c1cccs1)c1c(F)cccc1F", "Potency": "inconclusive: 16.4 µM [activator, single point]"}, {"smiles": "COc1ccc(CN(CC(=O)NC2CCCCC2)C(=O)CCCC(=O)Nc2ccccn2)cc1", "activity change, negative = inhibition": "inactive: 2.63%"}, {"smiles": "O=C1N(CC(=O)N2CCc3ccccc32)CCN1Cc1ccccc1Cl", "Potency": "inconclusive: 25.9 µM [inhibitor, single point]"}, {"smiles": "CC1=C/C(=N\\NC(=S)Nc2cccnc2)CC(C)(C)C1", "Potency": "inconclusive: 18.3 µM [inhibitor, partial curve]"}, {"smiles": "COc1ccc(-c2c(C(C)=O)c(C)nc3sc4c(=O)[nH]nnc4c23)cc1", "activity change, negative = inhibition": "inactive: -2.27%"}, {"smiles": "CC(C)CNC(=S)N1CCC(C(=O)c2ccc(F)cc2)CC1", "Potency": "inconclusive: 29.1 µM [inhibitor, single point]"}, {"smiles": "COc1ccc(CNC(=O)C2CCC(CNS(=O)(=O)c3ccccc3)CC2)cc1", "note": "(stereo unspecified)", "Potency": "inconclusive: 14.6 µM [inhibitor, partial curve]"}, {"smiles": "COc1ccc(-c2noc(CSc3nnc(-c4ccncc4)n3-c3ccc(F)cc3)n2)cc1OC", "Potency": "inconclusive: 23.1 µM [inhibitor, single point]"}, {"smiles": "Cc1ccc(NC(=O)c2ccc3c(c2)C(=O)N(c2cc(C)ccc2C)C3=O)nc1", "Potency": "inconclusive: 20.6 µM [activator, single point]"}, {"smiles": "CC1CCC(C(C)C)C(OCC(O)CNC(C)(C)C)C1", "note": "(stereo unspecified)", "Potency": "inconclusive: 13 µM [inhibitor, single point]"}, {"smiles": "Cc1cc(=O)[nH]c(N/N=C/c2ccccc2Cl)n1", "Potency": "inconclusive: 29.1 µM [activator, single point]"}, {"smiles": "COCCNC(=S)N1CCN(c2nc(-c3ccc(F)cc3)cs2)CC1", "activity change, negative = inhibition": "inactive: -29.3%"}, {"smiles": "O=C(COc1cccnc1[N+](=O)[O-])N1CCC(Cc2ccccc2)CC1", "activity change, negative = inhibition": "inactive: -11.1%"}, {"smiles": "COC(=O)c1c(NC(=O)C2CC(C)=C(C)CC2C(=O)O)sc2c1CCCCC2", "note": "(stereo unspecified)", "activity change, negative = inhibition": "inactive: -0.0644%"}, {"smiles": "Cc1oc(S(=O)(=O)N2CCCCC2)cc1NC(=O)Nc1ccccc1", "activity change, negative = inhibition": "inactive: 1.63%"}, {"smiles": "CC1CCCN(CC(=O)Nc2ccc(S(=O)(=O)N3CCCC3)cc2)C1", "note": "(stereo unspecified)", "Potency": "inconclusive: 3.26 µM [inhibitor, partial curve, poor fit]"}, {"smiles": "Cc1cccc2c(=O)c(-c3ccc4c(c3)OCO4)c(NC(=O)c3ccco3)oc12", "Potency": "active: 10.3 µM"}, {"smiles": "O=C(Nc1nc2ccc(Cl)cc2s1)c1ccc(Br)o1", "Potency": "inconclusive: 2.59 µM [activator, full curve]"}, {"smiles": "CC(=O)Nc1cccc(C(=O)NCCc2ccco2)c1", "Potency": "inconclusive: 13 µM [activator, partial curve]"}, {"smiles": "CCCCNS(=O)(=O)c1ccc(NC(=O)Cc2ccc(OC)cc2)cc1", "Potency": "inconclusive: 6.51 µM [inhibitor, partial curve]"}, {"smiles": "CCOC(=O)c1cnn(-c2ccc(NS(=O)(=O)c3ccc(Cl)cc3)cc2)c1C(F)(F)F", "Potency": "active: 23.1 µM"}, {"smiles": "Cc1cc(S(=O)(=O)N2CCN=C2c2ccccc2)c(C)cc1Cl", "activity change, negative = inhibition": "inactive: -6.48%"}, {"smiles": "COc1cccc(/C=C/C(=O)c2cccc([N+](=O)[O-])c2)c1", "Potency": "inconclusive: 23.1 µM [activator, partial curve]"}, {"smiles": "C=CCNC(=O)c1ccccc1NC(=O)c1ccccc1SC", "activity change, negative = inhibition": "inactive: 5.8%"}, {"smiles": "COc1ccc(CC(=O)N2CCC(c3ccccc3)C2)cc1", "note": "(stereo unspecified)", "Potency": "inconclusive: 23.1 µM [activator, partial curve]"}, {"smiles": "CC(=O)Nc1ccc(OCc2cccc([N+](=O)[O-])c2)cc1", "Potency": "inconclusive: 18.3 µM [activator, single point]"}, {"smiles": "COc1ccc(OC)c(CCNC(=O)C2CCN(c3ncnc4c3nc3n4CCCCC3)CC2)c1", "Potency": "inconclusive: 9.2 µM [inhibitor, partial curve, poor fit]"}, {"smiles": "CCOC(=O)c1ccccc1OCc1cc(/C=N/NC(=O)c2ccncc2)ccc1OC", "Potency": "inconclusive: 18.3 µM [inhibitor, partial curve]"}, {"smiles": "Cc1cc(NC(=O)c2ccc(F)cc2)no1", "Potency": "inconclusive: 18.3 µM [activator, partial curve]"}, {"smiles": "COc1ccccc1C(=O)Oc1ccccc1C(=O)Nc1ccccc1", "Potency": "inconclusive: 20.6 µM [activator, partial curve]"}, {"smiles": "CCCn1c2c(c(O)c(C(=O)Nc3ccc(OC)cc3)c1=O)CCCC2", "activity change, negative = inhibition": "inactive: -4.73%"}, {"smiles": "CN(C)S(=O)(=O)c1c(Cl)cccc1Cl", "Potency": "inconclusive: 16.4 µM [activator, partial curve, poor fit]"}, {"smiles": "CCOc1ccc(C(=O)NC(C)C2COc3ccccc3O2)cc1", "note": "(stereo unspecified)", "Potency": "inconclusive: 14.6 µM [activator, single point]"}, {"smiles": "O=S(=O)(Nc1cccc2cccnc12)c1ccccc1", "activity change, negative = inhibition": "inactive: -20.5%"}, {"smiles": "O=C(Nc1nc2ccc([N+](=O)[O-])cc2s1)c1ccco1", "Potency": "inconclusive: 2.06 µM [activator, full curve]"}, {"smiles": "CCN(C(=O)c1ccc(Cl)c(S(=O)(=O)Nc2c(C)n(C)n(-c3ccccc3)c2=O)c1)c1ccccc1", "Potency": "inconclusive: 16.4 µM [activator, single point]"}, {"smiles": "NC(=O)CSCc1c(Cl)cccc1Cl", "activity change, negative = inhibition": "inactive: 2.71%"}, {"smiles": "Nc1c(N=Nc2ccccc2F)c(=O)[nH]n1-c1ccccc1", "Potency": "inconclusive: 16.4 µM [activator, partial curve]"}, {"smiles": "Cc1ccc(Cl)cc1N1CCN(S(=O)(=O)c2cnc[nH]2)CC1", "activity change, negative = inhibition": "inactive: 5.23%"}, {"smiles": "Clc1ccc(SCc2cn3ccsc3n2)cc1", "Potency": "inconclusive: 11.6 µM [activator, partial curve]"}, {"smiles": "CC1CCN(CCOc2cc(Cl)ccc2Cl)CC1", "Potency": "inconclusive: 6.31 µM [inhibitor, single point]"}, {"smiles": "C=CCc1cc(C=O)cc(OCC)c1OCc1ccc(Cl)cc1", "activity change, negative = inhibition": "inactive: 5.3%"}, {"smiles": "O=C(CSc1nccc(=O)[nH]1)Nc1ccc2ccccc2c1", "Potency": "inconclusive: 23.1 µM [activator, partial curve, poor fit]"}, {"smiles": "COc1ccc2nc(SCCOC(=O)Nc3ccc(Cl)cc3)nc(C)c2c1", "Potency": "inconclusive: 25.9 µM [inhibitor, single point]"}, {"smiles": "CCOC(=O)Nc1ccc2c(COC(=O)C(NS(=O)(=O)c3ccc(Cl)cc3)C(C)O)cc(=O)oc2c1", "note": "(stereo unspecified)", "Potency": "active: 20.6 µM"}, {"smiles": "COc1ncnc2c1oc1nc(CC(C)C)c3c(c12)CC(C)(C)OC3", "Potency": "inconclusive: 23.1 µM [inhibitor, single point]"}]}]}
